Experimental data taken from the supplement of paper PMC9578143, “Small-Molecule Ebselen Binds to YTHDF Proteins Interfering with the Recognition of N^6-Methyladenosine-Modified RNAs” (ACS Pharmacology & Translational Science, 2022).
The list shows a part of the results. Plates or batches differ in their baseline, so values are only roughly comparable.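 Hits were defined as a z-score below −3.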 Residues, ends and D or L forms follow the SMILES beside them. *: point of attachment. For = O=C*

Target: T1, YTHDF1 YTH domain (aa 365-554) (UniProt Q9BYJ9)
T1 sequence (whole entry): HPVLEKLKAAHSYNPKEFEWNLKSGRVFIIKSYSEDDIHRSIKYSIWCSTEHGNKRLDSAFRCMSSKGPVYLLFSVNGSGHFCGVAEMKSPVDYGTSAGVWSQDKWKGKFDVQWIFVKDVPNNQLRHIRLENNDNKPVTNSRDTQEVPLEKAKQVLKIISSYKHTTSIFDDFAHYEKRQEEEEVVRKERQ
Assay: tryptophan fluorescence intensity z-score (mean); higher = higher fluorescence, less quenching (negative = binding / quenching)
Conditions: 10 µM

Tryptophan fluorescence intensity z-score, inactive:
CCCCCCCCCCCC[C@@H](C(=O)O)[C@H](C)C(=O)O (plate: M 15-16) 0.403
O=C(O)c1cc(=O)c2ccccc2[nH]1 (plate: M 23-24) 0.21
CCOC(N)=O (plate: M 9-10) -0.275
O=C1c2cccc(O)c2C(=O)c2c(O)cccc21 (plate: M 1-2) 0.553
CCCCC(=O)N(Cc1ccc(-c2ccccc2-c2nnn[nH]2)cc1)[C@H](C(=O)O)C(C)C (plate: M 9-10) -0.0915
C[C@H]1C(=O)CC[C@@H]2[C@]1(C)CC[C@H]1[C@@]2(C)CC[C@@]2(C)[C@@H]3CC(C)(C)CC[C@]3(C)CC[C@]12C (plate: M 13-14) 0.195
OC(CCN1CCCCC1)(c1ccccc1)c1ccccc1 (plate: M 21-22) 0.317
O=C(/C=C/c1ccccc1)c1ccc(O)cc1 (plate: M 15-16) -0.465
Nc1ccc(/N=N/c2ccccc2)c(N)n1 (plate: M 3-4) -0.234
CN(C)CCOC(=O)C(c1ccccc1)C1(O)CCCC1 (stereo not drawn) (plate: M 1-2) 0.441
Nc1nc(/C(=C/CC(=O)O)C(=O)N[C@@H]2C(=O)N3C(C(=O)O)=CCS[C@H]23)cs1 (plate: M 9-10) -0.171
Cc1c(S(=O)(=O)O)oc2c1C(=O)C(=O)c1c-2ccc2c1CCCC2(C)C (plate: M 23-24) -0.619
NCCCS(=O)(=O)O (plate: M 21-22) 0.532
C[C@@H]1CC[C@@]2(OC1)O[C@H]1C[C@H]3[C@@H]4CC=C5C[C@@H](O)CC[C@]5(C)[C@H]4CC[C@]3(C)[C@H]1[C@@H]2C (plate: M 13-14) 1.01
Clc1ccc(C(c2ccccc2Cl)C(Cl)Cl)cc1 (stereo not drawn) (plate: M 1-2) 0.193
O=C1O[C@H]([C@@H](O)CO)C(O)=C1O (plate: M 7-8) 0.248
CC(=O)Nc1ccc(S(=O)(=O)c2ccc(NC(C)=O)cc2)cc1 (plate: M 11-12) -0.564
O=C(O)c1ccccc1Nc1cccc(C(F)(F)F)c1 (plate: M 7-8) -0.578
OCCc1ccccc1 (plate: M 11-12) -0.703
CCCc1nn(C)c2c(=O)[nH]c(-c3cc(S(=O)(=O)N4CCN(C)CC4)ccc3OCC)nc12 (plate: M 9-10) -0.0356
O=C1CC[C@]23/C=C/C(=O)NCCCCNCCCNC(=O)/C=C/c4ccc(c2c4)O[C@@H]3C1 (plate: M 13-14) -0.335
CC(=O)Oc1ccc(C(c2ccc(OC(C)=O)cc2)c2ccccn2)cc1 (plate: M 1-2) 0.691
CCCCS(=N)(=O)CCC(N)C(=O)O (stereo not drawn) (plate: M 23-24) 0.253
CC(=O)O[C@@H]1CC2C(C)(C)[C@H](O)CC[C@]2(C)C2CC[C@@]3(C)[C@H](c4ccoc4)OC(=O)C4OC43[C@@]21C (stereo partly drawn) [alpha-DIHYDROGEDUNOL] (plate: M 21-22) 0.14
CCC(C)(C)C(=O)O[C@H]1C[C@@H](C)C=C2C=C[C@H](C)[C@H](CC[C@@H]3C[C@@H](O)CC(=O)O3)[C@H]21 (plate: M 9-10) -0.436
COc1ccc(C(C)=O)c(OC)c1 (plate: M 21-22) 0.218
CC(NCCc1ccc(O)cc1)C(O)c1ccc(O)cc1 (stereo not drawn) (plate: M 7-8) 0.434
CCC1(C)CC(=O)NC1=O (stereo not drawn) (plate: M 7-8) 0.571
C=C[C@@]1(C)CC(=O)[C@@]2(O)[C@](C)(O1)[C@@H](O)[C@@H](O)C1C(C)(C)CC[C@H](O)[C@@]12C (stereo partly drawn) (plate: M 19-20) 0.66
Cc1cc2nc3c(=O)[nH]c(=O)nc-3n(C[C@H](O)[C@H](O)[C@H](O)CO)c2cc1C (plate: M 9-10) -0.363
CC(=O)O[C@@H]1C[C@H]2C(C)(C)C(=O)C=C[C@]2(C)[C@H]2CC[C@@]3(C)[C@H](c4ccoc4)OC(=O)[C@H]4O[C@]43[C@@]21C (plate: M 13-14) 0.142
CSCC[C@H](NC=O)C(=O)N[C@@H](Cc1ccccc1)C(=O)O (plate: M 23-24) (For-Met-Phe-OH) 0.698
O=C1NCC2(CCN(CCc3ccccc3)CC2)O1 (plate: M 7-8) 0.519
Clc1ccc2c(c1)CCc1cccnc1C2=C1CCNCC1 (plate: M 11-12) 0.188
COc1cc(C)c(C(=O)Oc2cc(C)c(C(=O)O)c(O)c2C)c(OC)c1C (plate: M 19-20) 0.474
CN(C)CCOC(c1ccccc1)c1ccccc1.Cn1c(=O)c2[nH]c(Cl)nc2n(C)c1=O (plate: M 1-2) 0.233
C[C@@H]1CC[C@@]23CCC4(C)[C@@](C=CC5[C@@]6(C)CC[C@H](O)C(C)(C)C6CC[C@]54C)(OC2=O)C3[C@H]1C (stereo partly drawn) (plate: M 17-18) 0.443
CC(=O)[C@@]1(O)CC[C@H]2[C@@H]3CCC4=CC(=O)CC[C@]4(C)[C@H]3CC[C@@]21C (plate: M 21-22) 0.226
CCN(CC)C(=O)c1ccc(O)c(OC)c1 (plate: M 13-14) 0.28
NC1(C(=O)O)CC1 (plate: M 21-22) 0.0633
C[C@H]1[C@H](C)CC[C@]2(C(=O)O)CC[C@]3(C)C(=CC[C@@H]4[C@@]5(C)CC[C@H](O)C(C)(C)[C@@H]5CC[C@]43C)[C@H]12 (plate: M 21-22) 0.477
CCCCCCCCCCCCCCCC(=O)OC[C@H](O)[C@H]1OC(=O)C(O)=C1O (plate: M 13-14) 0.322
CC1CC2C3CCC4=CC(=O)C=CC4(C)C3(F)C(O)CC2(C)C1C(=O)CO (stereo not drawn) (plate: M 11-12) -0.33

Entries above containing an aryl methoxy group:
Tryptophan fluorescence intensity z-score, inactive:
COc1ccc(C(C)=O)c(OC)c1 (plate: M 21-22) 0.218
COc1cc(C)c(C(=O)Oc2cc(C)c(C(=O)O)c(O)c2C)c(OC)c1C (plate: M 19-20) 0.474
CCN(CC)C(=O)c1ccc(O)c(OC)c1 (plate: M 13-14) 0.28
